In US7943314B2, “Methods of detecting viability-associated molecules” (ISEAO Technologies Limited, priority 2005, dated 2011):
At least one structure is not confirmed: it was looked up by name or label, or the drawing left a doubt.

Test system: tetracycline sensitive strain of E. coli
Assay: ATP assay (ligase/quantitative PCR) of bacterial susceptibility to antibiotic
Assay type: cell-based
Conditions: grown 3 hours at 37° C. in LB media with and without tetracycline; FIG. 6

For `CN(C)[C@@H]1C(O)=C(C(N)=O)C(=O)[C@@]2(O)C(O)=C3C(=O)c4c(O)cccc4[C@@](C)(O)[C@H]3C[C@@H]12` [tetracycline], the “amount of ATP-catalysed ligation of the DNA substrate strands (quantitative PCR)” value was “declines with increasing amounts of tetracycline in the growth media”.
